Data reported in PMC1888729.
These are yes or no findings as the source states them, for the method shown. Binding seen in cells or lysates may run through a third protein. A yes stands for co-enrichment or nearness to the bait. Other partners may have been found. A no says only that the protein was not detected with the bait.

Protein sequences, listed by entry. Tags and fused reporters are not part of them. Lines headed by an entry give the natural chain unless they say otherwise; changes in a name come on top.
UniProt Q9UHX1: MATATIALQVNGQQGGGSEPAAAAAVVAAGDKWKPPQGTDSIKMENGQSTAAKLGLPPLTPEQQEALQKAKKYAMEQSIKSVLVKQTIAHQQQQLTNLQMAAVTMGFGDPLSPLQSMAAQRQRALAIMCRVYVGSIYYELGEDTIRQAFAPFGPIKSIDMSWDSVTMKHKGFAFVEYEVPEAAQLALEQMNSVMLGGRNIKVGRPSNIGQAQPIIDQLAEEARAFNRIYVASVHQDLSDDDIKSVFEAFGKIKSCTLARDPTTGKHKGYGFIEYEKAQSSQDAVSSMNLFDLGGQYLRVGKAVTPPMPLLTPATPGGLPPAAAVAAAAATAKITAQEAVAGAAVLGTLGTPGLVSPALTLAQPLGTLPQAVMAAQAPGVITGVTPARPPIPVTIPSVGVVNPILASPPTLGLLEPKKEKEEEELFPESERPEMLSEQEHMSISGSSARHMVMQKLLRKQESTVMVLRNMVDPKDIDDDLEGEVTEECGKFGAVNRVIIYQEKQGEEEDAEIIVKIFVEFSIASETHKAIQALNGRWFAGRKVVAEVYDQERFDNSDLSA

Biological target: FLAG-V5-tagged PUF60 (PUF60L) (human) (UniProt Q9UHX1)
Assay: affinity purification with mass spectrometry; F-V5-PUF60L precipitated from HeLa S3 nuclear extract on ANTI-FLAG M2 Affinity Gel, 1 h at 4°C, IP buffer (20 mM Hepes pH 8, 150 mM KCl, 1.5 mM MgCl2); washes with 250 mM KCl, 0.05% Triton X-100, one with 200 ng/ml RNase A; digested on the beads, or eluted with FLAG peptide and gel bands excised; only proteins found in both experiments and absent from control HeLa extract are listed

binding: no binding
B1: SF1 (protein, UniProt Q15637 1-639)
chain: MATGANATPLDFPSKKRKRSRWNQDTMEQKTVIPGMPTVIPPGLTREQERAYIVQLQIEDLTRKLRTGDLGIPPNPEDRSPSPEPIYNSEGKRLNTREFRTRKKLEEERHNLITEMVALNPDFKPPADYKPPATRVSDKVMIPQDEYPEINFVGLLIGPRGNTLKNIEKECNAKIMIRGKGSVKEGKVGRKDGQMLPGEDEPLHALVTANTMENVKKAVEQIRNILKQGIETPEDQNDLRKMQLRELARLNGTLREDDNRILRPWQSSETRSITNTTVCTKCGGAGHIASDCKFQRPGDPQSAQDKARMDKEYLSLMAELGEAPVPASVGSTSGPATTPLASAPRPAAPANNPPPPSLMSTTQSRPPWMNSGPSESRPYHGMHGGGPGGPGGGPHSFPHPLPSLTGGHGGHPMQHNPNGPPPPWMQPPPPPMNQGPHPPGHHGPPPMDQYLGSTPVGSGVYRLHQGKGMMPPPPMGMMPPPPPPPSGQPPPPPSGPLPPWQQQQQQPPPPPPPSSSMASSTPLPWQQNTTTTTTSAGTGSIPPWQQQQAAAAASPGAPQMQGNPTMVPLPPGVQPPLPPGAPPPPPPPPPGSAGMMYAPPPPPPPPMDPSNFVTMMGMGVAGMPPFGMPPAPPPPPPQN
